These are yes or no findings as the source states them, for the method shown. Some results given as binding are weak or reduced against the parent protein; the word gives no strength. Sequences can lack the tags named with a protein.
T1: LSm8 (Saccharomyces cerevisiae) (UniProt P47093)
T1 sequence: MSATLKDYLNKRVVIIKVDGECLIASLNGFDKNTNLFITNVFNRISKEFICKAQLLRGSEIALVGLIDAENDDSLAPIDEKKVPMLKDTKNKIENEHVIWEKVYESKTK

T2: Prp3 (Saccharomyces cerevisiae) (UniProt Q03338)
T2 sequence: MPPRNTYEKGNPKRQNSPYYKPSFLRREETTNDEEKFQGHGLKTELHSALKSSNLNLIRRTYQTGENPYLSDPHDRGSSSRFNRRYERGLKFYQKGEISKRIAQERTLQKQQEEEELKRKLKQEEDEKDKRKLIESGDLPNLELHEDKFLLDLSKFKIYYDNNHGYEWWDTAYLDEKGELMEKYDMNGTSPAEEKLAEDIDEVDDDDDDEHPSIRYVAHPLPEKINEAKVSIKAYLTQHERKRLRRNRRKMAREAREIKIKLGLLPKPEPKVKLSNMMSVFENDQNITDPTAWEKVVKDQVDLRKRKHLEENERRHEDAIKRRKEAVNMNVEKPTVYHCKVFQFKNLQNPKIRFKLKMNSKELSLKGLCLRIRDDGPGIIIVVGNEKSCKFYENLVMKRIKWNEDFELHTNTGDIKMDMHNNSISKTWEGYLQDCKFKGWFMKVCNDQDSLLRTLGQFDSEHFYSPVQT

B1: LSm2 (protein, UniProt P38203 1-95)
chain: MLFFSFFKTLVDQEVVVELKNDIEIKGTLQSVDQFLNLKLDNISCTDEKKYPHLGSVRNIFIRGSTVRYVYLNKNMVDTNLLQDATRREVMTERK
B2: LSm3 (protein, UniProt P57743 1-89)
chain: METPLDLLKLNLDERVYIKLRGARTLVGTLQAFDSHCNIVLSDAVETIYQLNNEELSESERRCEMVFIRGDTVTLISTPSEDDDGAVEI
B3: LSm4 (1–106) (domain or fragment, UniProt P40070 1-106)
chain: MLPLYLLTNAKGQQMQIELKNGEIIQGILTNVDNWMNLTLSNVTEYSEESAINSEDNAESSKAVKLNEIYIRGTFIKFIKLQDNIIDKVKQQINSNNNSNSNGPGH
B4: LSm5 (protein, UniProt P40089 1-93)
chain: MSLPEILPLEVIDKTINQKVLIVLQSNREFEGTLVGFDDFVNVILEDAVEWLIDPEDESRNEKVMQHHGRMLLSGNNIAILVPGGKKTPTEAL
B5: LSm6 (protein, UniProt Q06406 1-86)
chain: MSGKASTEGSVTTEFLSDIIGKTVNVKLASGLLYSGRLESIDGFMNVALSSATEHYESNNNKLLNKFNSDVFLRGTQVMYISEQKI
B6: LSm7 (protein, UniProt P53905 1-115)
chain: MHQQHSKSENKPQQQRKKFEGPKREAILDLAKYKDSKIRVKLMGGKLVIGVLKGYDQLMNLVLDDTVEYMSNPDDENNTELISKNARKLGLTVIRGTILVSLSSAEGSDVLYMQK
B7: Prp4 (protein, UniProt P20053 1-465)
chain: MSKYIALENLPVDLQHKGATQNESTADILKQLPHERLQAVLEKIPEEDLEVRRLLSILKKPEVVENEDVQQRRIRLAEILMVDEIDLENINNMENINGEEVDEEDDEDFFTPATSELIFARRFLINYSLERSRKRLQKEMERHQKFNTRQELLSRRTELQRMANLELAGSQLVSTKPISAVSLSTDDMVVATGSWAGDLQVLNSQTLQPLTQKLDSHVGKIGAIDWHPDSNNQMISCAEDGLIKNFQYSNEEGGLRLLGDLVGHERRISDVKYHPSGKFIGSASHDMTWRLWDASTHQELLLQEGHDKGVFSLSFQCDGSLVCSGGMDSLSMLWDIRSGSKVMTLAGHSKPIYTVAWSPNGYQVATGGGDGIINVWDIRKRDEGQLNQILAHRNIVTQVRFSKEDGGKKLVSCGYDNLINVYSSDTWLKMGSLAGHTDKIISLDISNNSHFLVSGGWDRSIKLWN

Each binder was assayed against T1, LSm8 (Saccharomyces cerevisiae) (assay: co-purification; seven LSm proteins co-expressed in yeast BCY123; lysate on calmodulin resin (CBP on LSm8, 500 mM NaCl, eluted with 2 mM EGTA), then Ni-NTA (His8 on LSm5, 500 mM NaCl, 500 mM urea), hydroxyapatite, Mono-Q).

| Binder | binding |
| --- | --- |
| B1 | binds |
| B2 | binds |
| B3 | binds |
| B4 | binds |
| B5 | binds |
| B6 | binds |

These binders were tested against T2, Prp3 (Saccharomyces cerevisiae) (assay: co-purification; Prp3-His8 and untagged Prp4 co-expressed in yeast BCY123; lysate on Ni-NTA, then hydroxyapatite, Resource-Q, Superdex-200 gel filtration (500 mM NaCl)).

| Binder | binding |
| --- | --- |
| B7 | binds |

From publication PMC4678811, “Assembly and dynamics of the U4/U6 di-snRNP by single-molecule FRET” (Nucleic Acids Research, 2015)
